Data as given in PubChem BioAssay AID602196 (INSERM, 2012)

- Aim: 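Modifiers of cisplatin sensitivity in A549 cells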
- Cells: human A549 lung cancer cells
- Reagents: siRNA pair against human genes
- Duration: 48 h transfection before cisplatin; time from cisplatin to read-out not stated
- Challenge: cisplatin at a dose killing half of control-siRNA cells; exact dose and duration not given
- Measured: 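Shift in cisplatin death relative to control siRNA, from -50 (all cells die) to +50 (no cells die); siRNAs harmful on their own scored 0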
- Direction: two-siRNA summed score (-2 to +2): higher = both siRNAs protect from cisplatin killing; -2 means both sensitise
- Hit rule: 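Each siRNA scores 0 if harmful alone by LDH or WST-1, otherwise +1 if it reduces and -1 if it increases cisplatin killing; a gene is active when both siRNAs agree (sum +2 or -2)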
- Meaning of the calls: active = both siRNAs shift cisplatin killing the same way; inactive = no consistent shift, or siRNA harmful alone
In all, the deposit lists about 23,000 reagents; shown is a part drawn at random. Over the whole deposit, 455 (2%) were called active. 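Active includes both protection and sensitisation; some change values fall well beyond the stated -50 to +50 range.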 A number with no mark means an inactive call. Further read-outs or replicates are left out here. The record does not give: the amount of reagent.

gene,two-siRNA summed score (-2 to +2)
OTX2,0
NUP42,0
ADGRE5,1
LOC387845,1
LINC00336,2 (active)
CDK11B,0
CACNB4,0
PCNT,0
LOC440991,0
LINC02370,1
LOC401642,0
AK5,2 (active)
PTGR2,0
PACS1,0
LOC440871,0
RABL2A,0
ADAMDEC1,0
ASTL,1
C3orf18,0
MC3R,-1
LOC401551,0
ATP1B3,1
KCNK4,0
